This is an account of results in patent US20220396794.

For data set [1], the target named is Transferrin receptor 1 (TfR1) on cells (Homo sapiens) (UniProt P02786). As to the kind of experiment: activity in cells. As to conditions: 2'-F pyrimidines (rule of the parent selection), protein on the cell surface, protein details: endogenous, U87MG, PANC-1 or HepG2 cells, variant of TR14 (87-nt).
The target in data set [2] is T1, Transferrin receptor 2 (TfR2) on cells (Homo sapiens) (UniProt Q9UP52).
T1 sequence (looked up, limits assumed): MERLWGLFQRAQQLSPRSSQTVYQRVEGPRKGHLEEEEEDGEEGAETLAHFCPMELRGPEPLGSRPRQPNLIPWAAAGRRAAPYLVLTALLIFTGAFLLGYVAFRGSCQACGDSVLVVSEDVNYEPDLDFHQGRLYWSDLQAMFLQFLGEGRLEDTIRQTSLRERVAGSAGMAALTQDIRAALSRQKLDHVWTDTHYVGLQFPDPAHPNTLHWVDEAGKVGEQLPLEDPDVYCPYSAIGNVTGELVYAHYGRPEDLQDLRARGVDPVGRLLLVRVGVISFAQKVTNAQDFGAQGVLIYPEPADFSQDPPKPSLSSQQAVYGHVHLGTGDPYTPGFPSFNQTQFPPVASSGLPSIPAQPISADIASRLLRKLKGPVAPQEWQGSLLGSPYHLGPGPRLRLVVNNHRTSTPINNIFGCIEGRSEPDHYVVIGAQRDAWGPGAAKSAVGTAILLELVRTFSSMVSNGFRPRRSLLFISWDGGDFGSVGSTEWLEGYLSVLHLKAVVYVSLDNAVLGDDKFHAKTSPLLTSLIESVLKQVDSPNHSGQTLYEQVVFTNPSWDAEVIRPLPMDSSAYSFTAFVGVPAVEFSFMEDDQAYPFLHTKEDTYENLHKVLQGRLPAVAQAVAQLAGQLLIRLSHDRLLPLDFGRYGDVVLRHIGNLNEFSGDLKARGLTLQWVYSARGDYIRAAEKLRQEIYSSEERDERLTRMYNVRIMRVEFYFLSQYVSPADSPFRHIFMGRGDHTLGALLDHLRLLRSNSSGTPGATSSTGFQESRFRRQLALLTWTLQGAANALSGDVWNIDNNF
As to the kind of experiment: binding assay. To be noted: confocal live-cell imaging, protein details: endogenous, TB10 glioma cells, TfR1-negative, label: biotin (SPR) or Cy3 (cells).

Data set [3] concerns the target Transferrin receptor 1 (TfR1) on cells (Homo sapiens) (UniProt P02786). As to the kind of experiment: binding assay. To be noted: 2'-F pyrimidines (rule of the parent selection); confocal live-cell imaging, U87MG; also internalised in HepG2 and PANC-1; protein on the cell surface; protein details: endogenous, U87MG, PANC-1 or HepG2 cells; label: biotin (SPR) or Cy3 (cells); variant of TR14 (87-nt).

The target is the same in data set [4]. As to the kind of experiment: flow cytometry. To be noted: 2'-F pyrimidines (2'-F U, 2'-F C, SELEX rule); PANC-1 cells, 500 nM, on ice; enriched over library; protein on the cell surface; protein details: endogenous, U87MG, PANC-1 or HepG2 cells; label: biotin (SPR) or Cy3 (cells). (Flow cytometry measures light scatter and fluorescence of single cells or particles in a stream.)

For data set [5] the target is unchanged. As to the kind of experiment: competition with a labelled probe. To be noted: 2'-F pyrimidines (2'-F U, 2'-F C, SELEX rule); TR14 200 nM pre-incubation significantly inhibited transferrin uptake in PANC-1; no competition with anti-TfR antibody; protein on the cell surface; protein details: endogenous, U87MG, PANC-1 or HepG2 cells; label: biotin (SPR) or Cy3 (cells).

Setting [6] is: not internalised in HepG2 and PANC-1, 100 nM.

For some of these results: Negatives hold for the conditions tested. For some of these results: Where cells or extracts were used, other partners may take part. For some of these results: Construct, isoform or probe ends are uncertain for at least one entry. For some of these results: Protein sequences can lack the tags named with them.

On to “GCUCAAUGCGUUCACGUUUAUUCACAUUUUUGAAUUGAGC [TR14 ST1-1 (40-nt)]”, for which the “functional effect of the aptamer” value in data set [1] (setting [6]) is “not active”. Turning to “GGGGCUCAAUGCGUUCACGUUUAUUCACAUUUUUGAAUUGAGCAUG [TR14 S1 (46-nt)]”, the “functional effect of the aptamer” value in data set [1] (internalised in HepG2 and PANC-1, 100 nM) is “active”. Turning to “UUUAUUCACAUUUUUGAAUUGA [TR14 ST1-3 (22-nt)]”, the binding result was “binds” in data set [2] (2'-F pyrimidines (rule of the parent selection), TB10, cross-reactive, protein on the cell surface, variant of TR14 (87-nt)) and “binds” in data set [3]. As for “AAUGCGUUCACGUUUAUUCACAUUUUUGAAUU [TR14 ST1-2 (32-nt)]”, the “functional effect of the aptamer” value in data set [1] (setting [6]) was “not active”. Consider “GGGAGACAAGAAUAAACGCUCAAUGCGUUCACGUUUAUUCACAUUUUUGAAUUGAGCAUGAGCUUCGACAGGAGGCUCACAACAGGC [TR14 (87-nt)]”, for which the binding result in data set [4] is listed as “binds”; in data set [2] (2'-F pyrimidines (2'-F U, 2'-F C, SELEX rule), TB10 cells, parent TR14 bound both TfR1 (U87MG) and TfR2, protein on the cell …), “binds”. Besides, in data set [5], the “functional effect of the aptamer” value was “active”.

Take “GGGGCUCAAUGCGUUCACGUUUAUUCACAUUUUUGAAUUGAGC [TR14 S2 (43-nt)]”: the binding result in data set [2] (2'-F pyrimidines (rule of the parent selection), TB10, S2 selective for TfR1, protein on the cell surface, variant of TR14 (87-nt)) is “no binding”; in data set [3] it was “binds”.
